Test results taken from publication PMC4666372.
Read-outs that look alike come from different tables or passages of the source. These are yes or no findings as the source states them, for the method shown. Some binding calls cover weakened binding; strength is not graded here.

Chains of the proteins cited; added tags and fusions are not shown. Lines headed by an entry give the natural chain unless they say otherwise; changes in a name come on top.
UniProt P06612: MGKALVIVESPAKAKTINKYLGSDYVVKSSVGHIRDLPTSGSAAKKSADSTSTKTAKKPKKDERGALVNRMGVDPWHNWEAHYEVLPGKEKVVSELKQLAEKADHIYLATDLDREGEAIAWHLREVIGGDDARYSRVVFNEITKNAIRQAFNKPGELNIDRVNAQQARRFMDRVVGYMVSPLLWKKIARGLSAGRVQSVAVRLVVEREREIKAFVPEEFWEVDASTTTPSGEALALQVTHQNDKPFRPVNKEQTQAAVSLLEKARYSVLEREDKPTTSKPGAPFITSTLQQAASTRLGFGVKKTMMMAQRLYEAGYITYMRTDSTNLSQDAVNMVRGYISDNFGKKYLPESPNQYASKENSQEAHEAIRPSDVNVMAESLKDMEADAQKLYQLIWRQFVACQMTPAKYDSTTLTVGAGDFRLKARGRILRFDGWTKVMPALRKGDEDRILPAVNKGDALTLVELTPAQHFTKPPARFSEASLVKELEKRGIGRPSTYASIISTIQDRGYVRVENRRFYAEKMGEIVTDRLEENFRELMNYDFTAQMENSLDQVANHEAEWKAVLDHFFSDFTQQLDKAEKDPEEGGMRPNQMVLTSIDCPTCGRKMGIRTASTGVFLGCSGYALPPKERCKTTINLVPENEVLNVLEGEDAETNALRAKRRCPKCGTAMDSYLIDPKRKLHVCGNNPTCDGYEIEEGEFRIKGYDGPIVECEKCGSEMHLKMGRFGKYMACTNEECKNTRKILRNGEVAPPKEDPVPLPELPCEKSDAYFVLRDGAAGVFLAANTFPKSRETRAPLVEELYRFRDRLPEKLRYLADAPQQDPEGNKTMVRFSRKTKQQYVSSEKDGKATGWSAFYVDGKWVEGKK

Assays:
[1] = molecular target: PrS-TopAI (N-terminal domain of Protein S fused to TopAI, His-tagged) (E. coli) (UniProt Q2EEU2); assay: co-IP; purified PrS-TopAI and TopA, TopA67 or TopA14 at a molar ratio of 1:5 in buffer A (20 mM Tris-HCl pH 8.0, 150 mM NaCl), in the absence of DNA; anti-protein S antiserum, protein G agarose, 4°C; western blot with anti-His antibody; both purified
[2] = molecular target: PrS-TopAI (N-terminal domain of Protein S fused to TopAI, His-tagged) (E. coli) (UniProt Q2EEU2); assay: as above; remark: listed apart in the source
[3] = molecular target: DNA topoisomerase I (New England Biolab) (E. coli) (UniProt P06612); assay: native gel or EMSA; relaxation reaction of supercoiled pUC19 (0.6 μg) with 50 nM topoisomerase I and PrS-TopAI, 30 min 37°C, stopped by EDTA; 1.0% agarose gel; DNA stacked on the top of the gel; both purified

Row | Substance | binding [1] | binding [2] | binding [3]
1 | His-tagged TopA14 (C-terminal region of TopA, 14 kDa, residues 745-865) (from UniProt P06612 745-865) (domain or fragment) | no binding |  | 
2 | His-tagged TopA (topoisomerase I, full length) (from UniProt P06612 1-865) (enzyme) | binds weakly | no binding (condition: in the absence of plasmid DNA) | 
3 | PrS-TopAI (N-terminal domain of Protein S fused to TopAI, His-tagged) (from UniProt Q2EEU2 1-85) |  |  | binds
